Test results from the supplement of paper PMC7125110.
± gives the standard error. Many of these values have a large error.

B1: glmS ribozyme (parent)
chain: AUAAAAGCGCCAGAACUACAGAAAUGUAGUUGACGAGGAGGAGGUUUAUCGAAUUUUCGGCGGAUGCCUCCAAA

Variants of: B1
Assay: self-cleavage kobs at 640 uM GlcN6P; higher = faster cleavage; RNA array
Details: with glucosamine-6-phosphate
How it was run: (§1)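 Barcoded ribozyme variants, transcribed in situ by E. coli RNA polymerase on sequenced MiSeq chips, were followed via a hybridised Cy3 probe at 37 °C. Glucosamine-6-phosphate ranged from 40 μM to 10 mM in HEPES/KCl/Mg(OAc)2 buffer. kobs came from decay fits to per-tile medians, and kcat and KM from weighted Michaelis–Menten fits.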

Row | Variant | self-cleavage kobs at 640 uM GlcN6P
1 | A64U C71G | 1.88e-05 ± 1.6e-05 s⁻¹
2 | C67A C70G C71U | 3.48e-05 ± 2.3e-05 s⁻¹
3 | C67U C70A | 1.82e-05 ± 1.2e-05 s⁻¹
4 | C68U U69G | 2.65e-05 ± 1.6e-05 s⁻¹
5 | U69A C70G | 3.38e-05 ± 1.8e-05 s⁻¹
6 | U69A C71A | 2.5e-05 ± 1.5e-05 s⁻¹

Part of the list above, comma-delimited.
Row,Variant,self-cleavage kobs at 640 uM GlcN6P
1,A64U C71G,1.88e-05 ± 1.6e-05 s⁻¹
2,C67A C70G C71U,3.48e-05 ± 2.3e-05 s⁻¹
3,C67U C70A,1.82e-05 ± 1.2e-05 s⁻¹

Variants of: B1
Assay: self-cleavage kobs at 2500 uM GlcN6P; higher = faster cleavage; RNA array
Details: with glucosamine-6-phosphate
How it was run: as §1

Row | Variant | self-cleavage kobs at 2500 uM GlcN6P
7 | A64U C71G | 2.15e-05 ± 1.4e-05 s⁻¹
8 | C67A C70G C71U | 2.65e-05 ± 2.5e-05 s⁻¹
9 | C67U C70A | 1.98e-05 ± 1.2e-05 s⁻¹
10 | U69A C71A | 2.58e-05 ± 1.4e-05 s⁻¹
11 | C10U C50G G63U | 3.5e-05 ± 3e-05 s⁻¹
12 | C11A C70A | 2.75e-05 ± 1.7e-05 s⁻¹
13 | C11G U55G G59C | 0.000375 ± 0.00024 s⁻¹
14 | C11U U30A C34U A36G U69A | 4.79e-05 ± 2.5e-05 s⁻¹
15 | A14C C68G | 1.68e-05 ± 1.4e-05 s⁻¹
16 | G29A C58G | 1.24e-05 ± 1.1e-05 s⁻¹
17 | U30A U69A C70G | 2.98e-05 ± 2.4e-05 s⁻¹
18 | A33G C50G G59U | 3.87e-05 ± 2.3e-05 s⁻¹
19 | A33U G35A C50G | 4.33e-05 ± 2.9e-05 s⁻¹
20 | A36U A64G U69A C71G | 5.21e-05 ± 2.7e-05 s⁻¹

Variants of: B1
Assay: self-cleavage kobs at 10000 uM GlcN6P; higher = faster cleavage; RNA array
Details: with glucosamine-6-phosphate
How it was run: as §1

Row | Variant | self-cleavage kobs at 10000 uM GlcN6P
21 | A64U C71G | 1.79e-05 ± 1.1e-05 s⁻¹
22 | C68U U69G | 1.65e-05 ± 1.1e-05 s⁻¹
23 | C11A C70A | 2.05e-05 ± 1.4e-05 s⁻¹
24 | A14U C68G | 1.43e-05 ± 1.3e-05 s⁻¹
25 | U31G C68A | 1.88e-05 ± 1.2e-05 s⁻¹
26 | A39G C58G C71A | 2.67e-05 ± 2e-05 s⁻¹

Variants of: B1
Assay: self-cleavage kobs at 160 uM GlcN6P; higher = faster cleavage; RNA array
Details: with glucosamine-6-phosphate
How it was run: as §1

Row | Variant | self-cleavage kobs at 160 uM GlcN6P
27 | A6C A12U | 1.44e-05 ± 1.2e-05 s⁻¹
28 | A6G U54G | 4.08e-05 ± 2.2e-05 s⁻¹
29 | G7U U69G | 2.14e-05 ± 2.1e-05 s⁻¹
30 | C10A U47A C70G | 4.91e-05 ± 3e-05 s⁻¹
31 | C10U A14U C16U C68G | 6.74e-05 ± 3.9e-05 s⁻¹
32 | C10U C11A C70A | 3.42e-05 ± 2.1e-05 s⁻¹
33 | C10U C50G G63U | 2.59e-05 ± 1.5e-05 s⁻¹
34 | C11A A48U U54A U57C G62A | 0.00226 ± 0.0019 s⁻¹
35 | C11A C70A | 0.000485 ± 0.0003 s⁻¹
36 | C11A G38U C67G C68U | 0.000391 ± 0.0002 s⁻¹
37 | C11A G59A | 2.85e-05 ± 1.7e-05 s⁻¹
38 | C11A G59A C61G C70A | 2.52e-05 ± 2.2e-05 s⁻¹
39 | C11G U55G G59C | 7.14e-05 ± 4.3e-05 s⁻¹
40 | C11U C61G C67A | 3.66e-05 ± 2.4e-05 s⁻¹
41 | C11U G66A | 3.42e-05 ± 2.2e-05 s⁻¹
42 | C11U U30A C34U A36G U69A | 3.87e-05 ± 2e-05 s⁻¹
43 | A12C U69A | 3.65e-05 ± 2.4e-05 s⁻¹
44 | A12G A14U | 2.19e-05 ± 1.3e-05 s⁻¹
45 | A12G A15U C70G | 2.35e-05 ± 2.3e-05 s⁻¹
46 | A12G A53C | 1.45e-05 ± 1.4e-05 s⁻¹
47 | A12G C67U | 2.89e-05 ± 1.5e-05 s⁻¹
48 | A12G G37U C70G C71G | 2.87e-05 ± 2.3e-05 s⁻¹
49 | A12G U54C | 3.94e-05 ± 2.2e-05 s⁻¹
50 | A12U A39G U47G U54A U69A | 3.47e-05 ± 2.4e-05 s⁻¹

Row | Variant | self-cleavage kobs at 160 uM GlcN6P
51 | G13A C58G | 2.44e-05 ± 1.5e-05 s⁻¹
52 | G13U C71A | 2.35e-05 ± 1.3e-05 s⁻¹
53 | A14C C68G | 2.53e-05 ± 2.2e-05 s⁻¹
54 | A14C U65A | 2.67e-05 ± 1.7e-05 s⁻¹
55 | A14U C68G | 1.84e-05 ± 1.8e-05 s⁻¹
56 | A14U U30C C70G | 4.29e-05 ± 2.6e-05 s⁻¹
57 | A15C A48U G51U U57C U69G | 4.08e-05 ± 3.2e-05 s⁻¹
58 | A15C G41U | 2.25e-05 ± 1.7e-05 s⁻¹
59 | A15C U47C | 1.89e-05 ± 1.1e-05 s⁻¹
60 | A15U C68A | 2.08e-05 ± 1.7e-05 s⁻¹
61 | C16A C70G | 2.74e-05 ± 1.7e-05 s⁻¹
62 | C16A U56G U65G | 3.52e-05 ± 2.6e-05 s⁻¹
63 | C16U A48U | 2.52e-05 ± 1.5e-05 s⁻¹
64 | C16U C50A | 2.17e-05 ± 2.1e-05 s⁻¹
65 | C16U G63U C70G | 3.73e-05 ± 2.5e-05 s⁻¹
66 | G29A A52G | 2.72e-05 ± 1.4e-05 s⁻¹
67 | G29A C58G | 1.78e-05 ± 1.7e-05 s⁻¹
68 | G29A C71A | 0.000143 ± 0.0001 s⁻¹
69 | G29A U30A U31C | 3.68e-05 ± 2e-05 s⁻¹
70 | G29C A52G | 2.19e-05 ± 1.8e-05 s⁻¹
71 | G29C C67U | 0.00251 ± 0.0013 s⁻¹
72 | G29C C70G | 2.68e-05 ± 1.8e-05 s⁻¹
73 | U30A U69A C70G | 3.54e-05 ± 2.4e-05 s⁻¹
74 | U30C C68A | 2.29e-05 ± 1.2e-05 s⁻¹

Two entries picked at random from the list so far:
Row | Variant | self-cleavage kobs at 160 uM GlcN6P
74 | U30C C68A | 2.29e-05 ± 1.2e-05 s⁻¹
38 | C11A G59A C61G C70A | 2.52e-05 ± 2.2e-05 s⁻¹

(further entries)

Row | Variant | self-cleavage kobs at 160 uM GlcN6P
75 | U31G C68A | 2.12e-05 ± 1.7e-05 s⁻¹
76 | G32A G41A | 1.4e-05 ± 1.2e-05 s⁻¹
77 | G32A U46G | 4.68e-05 ± 2.5e-05 s⁻¹
78 | G32C C58A | 2.13e-05 ± 1.7e-05 s⁻¹
79 | G32U U46G C50G | 5.56e-05 ± 3.2e-05 s⁻¹
80 | A33C C50G U54A | 0.00025 ± 0.00013 s⁻¹
81 | A33G C50G G59U | 3.55e-05 ± 2e-05 s⁻¹
82 | A33U G35A C50G | 9.75e-05 ± 6.6e-05 s⁻¹
83 | A33U G59U U69G | 3.44e-05 ± 1.8e-05 s⁻¹
84 | A36U A64G U69A C71G | 6.44e-05 ± 3.4e-05 s⁻¹
85 | G37A U69C | 3.99e-05 ± 2.4e-05 s⁻¹
86 | G37C G66C C71A | 5.9e-05 ± 3.1e-05 s⁻¹
87 | G38A C58U C68G | 2.26e-05 ± 2.2e-05 s⁻¹
88 | A39G C58G C71A | 2.81e-05 ± 2.4e-05 s⁻¹
89 | A39G C67G C68G | 3.13e-05 ± 1.7e-05 s⁻¹
90 | G40A A52G | 2.05e-05 ± 1.2e-05 s⁻¹
91 | G40U A64G | 2.28e-05 ± 1.2e-05 s⁻¹
92 | G41A U65A | 2.55e-05 ± 1.4e-05 s⁻¹
93 | A42U A53G | 2.8e-05 ± 1.7e-05 s⁻¹
94 | A42U U55A | 1.95e-05 ± 1.9e-05 s⁻¹
95 | G43A C68G | 2.98e-05 ± 1.8e-05 s⁻¹
96 | U46A U47C C70A | 2.74e-05 ± 2.1e-05 s⁻¹
97 | U47A C68G | 2.85e-05 ± 1.8e-05 s⁻¹
98 | U47G A48U C68U | 4.16e-05 ± 2.6e-05 s⁻¹
